Measured values reported in US6407214 (CELLTECH THERAPEUTICS, dated 2002).
No constants are given. Whether binding was seen depends on the method and setting. Some binding calls cover weakened binding; strength is not graded here.

Molecular target: T1, Lectin/EGF fragment from E-selectin (UniProt P16581 22-178, limits assumed)
T1 construct: domain: Lectin/EGF fragment; Soluble fragment; also called lectin/EGF fragment of E-selectin
T1 sequence (looked up): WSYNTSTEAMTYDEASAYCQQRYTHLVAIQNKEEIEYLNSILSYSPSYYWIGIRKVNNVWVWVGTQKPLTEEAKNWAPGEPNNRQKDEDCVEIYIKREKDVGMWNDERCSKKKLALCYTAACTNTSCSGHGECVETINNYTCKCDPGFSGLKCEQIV
Test: competition ELISA on captured lectin/EGF fragment; competitor biotinylated murine ENA-2

binding: binds
B1: mouse ENA-2 (antibody, V domains shown)
VH: QVQLQQSGTELVRPGASVTLSCKASGYTFTDHEMHWVKQTPVLGLEWIGTIDPETGGTAYNQKFKGKATLTADKSSTTAYMDLRGLTSEDSAVFYCTVLRMDYWGQGTSLTVSA
VL: DIVMTQSPSSLTVTAGEKVTMRCKSSQSLLNSGNQQNYLTWYQQKPGQPPKLLIYWASTRESGVPDRFTGSGSGTDFTLTISSVQTEDLAVYYCQNDYDYPLTFGAGTKLEIKR
notes: Mouse IgG1/kappa whole antibody purified from hybridoma supernatant; The entries may include leader residues; also called mENA-2; murine ENA-2
